In paper PMC11628653:
These are yes or no findings as the source states them, for the method shown. Binding seen in cells or lysates may run through a third protein.

Chains of the proteins cited; added tags and fusions are not shown.
UniProt P61073: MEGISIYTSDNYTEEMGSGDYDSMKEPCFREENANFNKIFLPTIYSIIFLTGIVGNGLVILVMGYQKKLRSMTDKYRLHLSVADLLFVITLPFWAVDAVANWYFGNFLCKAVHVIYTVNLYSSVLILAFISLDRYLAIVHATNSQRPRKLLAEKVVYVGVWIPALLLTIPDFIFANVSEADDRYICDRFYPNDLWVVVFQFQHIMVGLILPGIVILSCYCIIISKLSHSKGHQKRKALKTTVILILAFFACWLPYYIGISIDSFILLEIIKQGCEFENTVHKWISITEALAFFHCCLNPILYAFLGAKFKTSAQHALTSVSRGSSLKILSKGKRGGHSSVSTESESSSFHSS
UniProt P25106: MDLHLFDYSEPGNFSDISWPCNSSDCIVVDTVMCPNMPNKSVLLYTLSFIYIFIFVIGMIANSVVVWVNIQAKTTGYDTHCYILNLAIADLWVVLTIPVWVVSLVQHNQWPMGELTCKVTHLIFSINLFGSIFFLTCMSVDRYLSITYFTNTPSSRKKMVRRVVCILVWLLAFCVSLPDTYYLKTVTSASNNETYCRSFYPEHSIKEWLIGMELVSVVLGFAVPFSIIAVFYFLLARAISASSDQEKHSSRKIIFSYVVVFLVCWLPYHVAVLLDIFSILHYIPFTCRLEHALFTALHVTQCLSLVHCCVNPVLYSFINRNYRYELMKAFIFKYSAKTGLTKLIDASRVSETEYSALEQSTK

What was measured:
[1] = target: C-X-C motif chemokine receptor type 4 (CXCR4) (human (endogenous in platelets)) (UniProt P61073); assay: condition: only platelets treated with 1 ug/mL CXCL12 or 1 ug/mL CXCL14, without ACKR3 agonist; proximity ligation; Duolink PLA on washed human platelets, flow cytometry read-out; platelets treated with 1 ug/mL CXCL12 or 1 ug/mL CXCL14 (also 1 ug/mL MIF) for 15 min at RT, no ACKR3 agonist
[2] = target: C-X-C motif chemokine receptor type 4 (CXCR4) (human (endogenous in platelets)) (UniProt P61073); assay: condition: only platelets activated with 5 uM ADP, 1 ug/mL CRP-XL or 1 U/mL thrombin, without ACKR3 agonist; proximity ligation; Duolink PLA on washed human platelets, flow cytometry read-out; platelets treated with 5 uM ADP, 1 ug/mL CRP-XL or 1 U/mL thrombin for 30 min at RT, no ACKR3 agonist
[3] = target: C-X-C motif chemokine receptor type 4 (CXCR4) (human (endogenous in platelets)) (UniProt P61073); assay: condition: only platelets treated with 1 ug/mL CXCL12 or 1 ug/mL CXCL14, without ACKR3 agonist; proximity ligation; Duolink PLA on washed human platelets centrifuged onto coverslips, fluorescence microscopy read-out; platelets treated with 1 ug/mL CXCL12 or 1 ug/mL CXCL14 (also 1 ug/mL MIF) for 15 min at RT, no ACKR3 agonist
[4] = target: C-X-C motif chemokine receptor type 4 (CXCR4) (human (endogenous in platelets)) (UniProt P61073); assay: condition: only platelets activated with 5 uM ADP, 1 ug/mL CRP-XL or 1 U/mL thrombin, without ACKR3 agonist; proximity ligation; Duolink PLA on washed human platelets centrifuged onto coverslips, fluorescence microscopy read-out; platelets treated with 5 uM ADP, 1 ug/mL CRP-XL or 1 U/mL thrombin for 30 min at RT, no ACKR3 agonist

Measured: binding

atypical chemokine receptor 3 (ACKR3) (from UniProt P25106 1-362)
no binding: all assays above
